doi:10.1101/654111 (bioRxiv, 2019)
These are yes or no findings as the source states them, for the method shown. Binding seen in cells or lysates may run through a third protein. These calls come from enrichment with a bait or labelling near it, and not all partners need be listed.

Sequences of proteins named here, by UniProt entry; tags and fusion partners are left off. A change or cut given only in a name is not applied to a line headed by its entry. A line that says so, or that is headed by a name, gives the form on record, which may keep a tag or linker. Residues count along the entry.
UniProt Q8TEQ6: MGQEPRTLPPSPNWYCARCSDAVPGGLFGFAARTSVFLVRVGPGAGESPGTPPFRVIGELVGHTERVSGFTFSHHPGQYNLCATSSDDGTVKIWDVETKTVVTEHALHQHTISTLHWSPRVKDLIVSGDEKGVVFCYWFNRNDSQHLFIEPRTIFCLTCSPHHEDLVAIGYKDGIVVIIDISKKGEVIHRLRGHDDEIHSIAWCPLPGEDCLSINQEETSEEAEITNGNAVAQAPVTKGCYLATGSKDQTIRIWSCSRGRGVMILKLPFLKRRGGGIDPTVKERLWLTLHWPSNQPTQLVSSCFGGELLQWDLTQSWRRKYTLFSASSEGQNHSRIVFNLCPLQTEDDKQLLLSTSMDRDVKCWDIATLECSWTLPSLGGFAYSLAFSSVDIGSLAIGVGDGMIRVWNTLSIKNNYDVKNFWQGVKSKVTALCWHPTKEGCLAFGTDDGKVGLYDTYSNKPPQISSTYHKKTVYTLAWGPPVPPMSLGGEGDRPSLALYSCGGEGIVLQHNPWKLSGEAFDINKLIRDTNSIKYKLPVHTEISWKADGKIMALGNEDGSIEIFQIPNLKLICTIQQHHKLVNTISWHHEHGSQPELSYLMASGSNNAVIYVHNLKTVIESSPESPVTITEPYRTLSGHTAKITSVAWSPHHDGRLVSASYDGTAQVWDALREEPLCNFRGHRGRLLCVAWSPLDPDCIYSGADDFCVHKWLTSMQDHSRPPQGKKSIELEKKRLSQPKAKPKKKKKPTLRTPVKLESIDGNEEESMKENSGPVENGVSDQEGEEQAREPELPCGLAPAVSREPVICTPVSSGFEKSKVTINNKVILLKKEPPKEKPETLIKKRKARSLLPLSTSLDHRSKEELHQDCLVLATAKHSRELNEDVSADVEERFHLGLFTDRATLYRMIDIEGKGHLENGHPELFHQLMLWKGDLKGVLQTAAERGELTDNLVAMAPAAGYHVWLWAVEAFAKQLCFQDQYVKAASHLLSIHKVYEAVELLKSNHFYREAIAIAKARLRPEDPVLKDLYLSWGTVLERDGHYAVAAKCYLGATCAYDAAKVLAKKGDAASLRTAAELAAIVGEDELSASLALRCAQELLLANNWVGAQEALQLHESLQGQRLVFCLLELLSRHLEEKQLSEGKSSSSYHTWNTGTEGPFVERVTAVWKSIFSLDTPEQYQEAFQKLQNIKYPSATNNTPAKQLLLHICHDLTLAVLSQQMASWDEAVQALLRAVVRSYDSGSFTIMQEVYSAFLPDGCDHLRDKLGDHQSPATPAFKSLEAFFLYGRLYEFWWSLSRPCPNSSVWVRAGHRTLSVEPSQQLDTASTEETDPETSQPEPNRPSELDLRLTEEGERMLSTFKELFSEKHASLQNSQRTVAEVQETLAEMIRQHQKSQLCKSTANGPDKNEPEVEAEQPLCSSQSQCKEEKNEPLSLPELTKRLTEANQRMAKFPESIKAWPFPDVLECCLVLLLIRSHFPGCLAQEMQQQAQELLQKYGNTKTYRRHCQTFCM
p85-wt-TAP (Gemin5 cleavage product p85 with a C-terminal TAP tag): residues 845-1508 of Q8TEQ6

Molecular target: p85-wt-TAP (Gemin5 cleavage product p85 with a C-terminal TAP tag) (human) (UniProt Q8TEQ6)
Assay: affinity purification with mass spectrometry

Substance: Gemin5 (endogenous full-length protein) (from UniProt Q8TEQ6 1-1508)
- binding: binds
